According to article PMC10208894, “The SmNPR4-SmTGA5 module regulates SA-mediated phenolic acid biosynthesis in Salvia miltiorrhiza hairy roots”:

System: T1, SmTGA5 (Salvia miltiorrhiza)
T1 sequence (looked up, limits assumed): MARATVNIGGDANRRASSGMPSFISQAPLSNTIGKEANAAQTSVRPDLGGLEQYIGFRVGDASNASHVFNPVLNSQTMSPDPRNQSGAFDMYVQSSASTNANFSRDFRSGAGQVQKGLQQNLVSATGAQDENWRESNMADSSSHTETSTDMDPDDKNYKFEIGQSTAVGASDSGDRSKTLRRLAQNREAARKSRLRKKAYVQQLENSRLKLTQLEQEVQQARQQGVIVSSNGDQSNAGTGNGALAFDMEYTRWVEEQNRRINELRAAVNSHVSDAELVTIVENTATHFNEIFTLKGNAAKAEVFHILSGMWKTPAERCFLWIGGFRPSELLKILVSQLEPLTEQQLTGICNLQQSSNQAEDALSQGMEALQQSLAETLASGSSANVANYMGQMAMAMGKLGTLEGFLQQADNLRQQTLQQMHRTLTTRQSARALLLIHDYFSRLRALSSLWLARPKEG
Test: EMSA
Conditions: SmNPR4 (P2) added, attenuates SmTGA5 binding; Beyotime GS009 EMSA kit, 20-25 C, 20 min, acrylamide gel; salt and pH not stated; recombinant protein; protein details: His (pET32a, N-terminal fusion)

“TTTAAAGTGACGTGTATCATTTAAAGTGACGTGTATCATTTAAAGTGACGTGTATCA (double strand) [Probe-pTAT1 (3x as-1)]”: binds more weakly.

Construct, isoform or probe ends are uncertain for at least one entry. The comparison behind a weaker result is the experiment's own reference, which may not be listed here. Where a protein sequence is shown, tags need not be part of it.
